The source of these data is patent publication US20250082624A1, “METHODS OF TREATING COGNITIVE IMPAIRMENT” (NeuroTherapia, Inc., priority 2023, published 2025).

Each structure is given as a SMILES string. Several values for one entry are separate records, joined by “and”; a condition that tells them apart may be missing. Equal entries are not always repeated. The source gives many values for each of these; only a part stands here.

The nature of the series: Phase 1b MAD plasma pharmacokinetics, non-compartmental analysis. Type of series: in vivo, human. The text has this: Methods: All study procedures were approved by the IRB, and informed consent was obtained. Three cohorts of volunteers 45-80 years of age with well-controlled comorbidities (NOAD) and one cohort of AD patients diagnosed with cognitive impairment consistent with prodromal AD per International Working Group criteria or mild AD per National Institute on Aging—Alzheimer's Association criteria (n=6 active, 2 placebo per cohort) were enrolled. Participants were admitted to the study site for the duration of the dosing and returned 7-12 days after the last dose for a safety visit. Participants received NTRX-07 (10, 30, or 90 mg) or a placebo in a double-blinded randomization orally once daily for seven days. Subjects were assessed for changes in vital signs, including maneuvers to induce lightheadedness, electrocardiograms, 24-hour electroencephalograms (EEG), and safety laboratory studies. The second cohort returned and received a single repeat dose after a standard high-fat meal. The AD cohort also underwent cognitive testing and had blood samples for biomarkers drawn. Subjects had PK sampling done after the first and final dose of the study drug. An independent safety review committee conducted a blinded safety review of adverse events and plasma levels between each cohort.
All subjects had PK sampling done after the first and final dose of the study drug.
Raw bioanalytical data were received from Nuvisan following analysis of plasma samples from each of four cohorts. PK parameters were calculated by noncompartmental analysis using standard equations. Specifically, area under the plasma concentration versus time curve (AUC) was calculated using the trapezoid rule. Maximal plasma concentration (Cmax) and time of maximal plasma concentration (Tmax) were taken directly from the data. Clearance divided by bioavailability (Cl/F) was calculated as the dose divided by the AUC. Apparent volume of distribution over bioavailability (Vd/F) was calculated as dose divided by Cmax.
With oral administration of the dose every 24 hours for 7 days, blood samples were taken over a 24-hour interval on Days 1 and 7 and before and after dosing on Day 3.
Raw bioanalytical data were received from Nuvisan on Oct. 27, 2022. […] Specifically, area under the plasma concentration versus time curve (AUC) was calculated using the trapezoid rule. Maximal plasma concentration (Cmax) and time of maximal plasma concentration (Tmax) were taken directly from the data. Clearance divided by bioavailability (Cl/F) was calculated as the dose divided by the AUC. Apparent volume of distribution over bioavailability (Vd/F) was calculated as dose divided by Cmax.
Raw bioanalytical data were received from Nuvisan on Nov. 24, 2022. […] Specifically, area under the plasma concentration versus time curve (AUC) was calculated using the trapezoid rule. Maximal plasma concentration (Cmax) and time of maximal plasma concentration (Tmax) were taken directly from the data. Clearance divided by bioavailability (Cl/F) was calculated as the dose divided by the AUC. Apparent volume of distribution over bioavailability (Vd/F) was calculated as dose divided by Cmax.
Raw bioanalytical data were received from Nuvisan on Dec. 19, 2022. […] Specifically, area under the plasma concentration versus time curve (AUC) was calculated using the trapezoid rule. Maximal plasma concentration (Cmax) and time of maximal plasma concentration (Tmax) were taken directly from the data. Clearance divided by bioavailability (Cl/F) was calculated as the dose divided by the AUC. Apparent volume of distribution over bioavailability (Vd/F) was calculated as dose divided by Cmax.
Raw bioanalytical data were received from Nuvisan on Jun. 30, 2023. […] Specifically, area under the plasma concentration versus time curve (AUC) was calculated using the trapezoid rule. Maximal plasma concentration (Cmax) and time of maximal plasma concentration (Tmax) were taken directly from the data. […]

The mark [1] stands for this setting: Table 25 (interim): Cohort B, 120 mg SDD (30 mg NTRX-07) QD oral, Day 7, individual subjects.
The mark [2] stands for this setting: Table 29 (interim): Cohort C, 360 mg SDD (90 mg NTRX-07) QD oral, Day 1, individual subjects.
Setting [3] is: Table 30 (interim): Cohort C, 360 mg SDD (90 mg NTRX-07) QD oral, Day 7, individual subjects.
[4] abbreviates: Table 34 (interim): Cohort D (AD), 360 mg SDD (90 mg NTRX-07) QD oral, Day 1, individual subjects.
Setting [5] is: Table 35 (interim): Cohort D (AD), 360 mg SDD (90 mg NTRX-07) QD oral, Day 7, individual subjects.

As usually defined, the Cmax is the maximum level reached in the sampled fluid or tissue. As for `CC1(Cc2ccccc2)COc2cc(C(=O)N3CCCCC3)ccc21` (stereo not drawn) [NTRX-07, 3-benzyl-3-methyl-2,3-dihydrobenzofuran-6-carboxylic acid-piperidine amide], the Cl/F was 497 L/h and 1788 L/h and 599 L/h under setting [1]; 785 ± 635 L/h (Table 25 (interim): Cohort B, 120 mg SDD (30 mg NTRX-07) QD oral, Day 7, mean ± S.D.); 221.0 L/h and 420.3 L/h and 389.3 L/h and 548.0 L/h and 208.1 L/h and 184.7 L/h under setting [2]; 329 ± 146 L/h (Table 29 (interim): Cohort C, 360 mg SDD (90 mg NTRX-07) QD oral, Day 1, mean ± S.D.); 459.9 L/h and 596.3 L/h and 1017.7 L/h and 697.8 L/h and 410.9 L/h and 266.9 L/h under setting [3]; 575 ± 263 L/h (Table 30 (interim): Cohort C, 360 mg SDD (90 mg NTRX-07) QD oral, Day 7, mean ± S.D.). Further, the Cl/F under setting [4] is 358.6 L/h and 286.8 L/h and 132.0 L/h and 266.9 L/h and 227.8 L/h and 253.3 L/h; the Cl/F (Table 34 (interim): Cohort D (AD), 360 mg SDD (90 mg NTRX-07) QD oral, Day 1, mean ± S.D.) is 254 ± 74 L/h; the Cl/F under setting [5] is 357.3 L/h and 194.2 L/h and 217.1 L/h and 224.5 L/h and 271.1 L/h and 318.6 L/h; the Cl/F (Table 35 (interim): Cohort D (AD), 360 mg SDD (90 mg NTRX-07) QD oral, Day 7, mean ± S.D.) is 245 ± 50 L/h. Besides, the peak concentration (Cmax) reads like this: under setting [1], 186 ng/mL and 42.4 ng/mL and 37.9 ng/mL; under setting [2], 449 ng/mL and 350 ng/mL and 337 ng/mL and 92.4 ng/mL and 713 ng/mL and 694 ng/mL; under setting [3], 167 ng/mL and 230 ng/mL and 155 ng/mL and 114 ng/mL and 105 ng/mL and 361 ng/mL; under setting [4], 234 ng/mL and 491 ng/mL and 685 ng/mL and 435 ng/mL and 434 ng/mL and 587 ng/mL; under setting [5], 250 ng/mL and 262 ng/mL and 246 ng/mL and 176 ng/mL and 221 ng/mL.
